# “And” between values parts separate entries of the source, which are not always exact repeats. Equal values may be shown once. In all, about 410,000 compounds went through this assay and about 18,000 (4.4%) were called active. Inconclusive means that the source gave no clear call. Such entries were picked first, then a sample of the others. No stated cut-off is given here; in the data, active means activity change below about -60%; inconclusive means no clear call, values can overlap the other calls; inactive means above about -39%.
# Assay: qHTS Assay for inhibitors of the human cytomegalovirus (HCMV)
# Details: HFF cells, HCMV-luciferase reporter, 72 h; at 57.5 µM; stronger effect = lower value
# How it was run: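 After 16 h attachment at 37C, HFF cells received test compound and HCMV-luciferase (1 PFU/cell); reporter luminescence read 72 h later, data normalized against buffer-only and known inhibitor Salinomycin.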
# On the % scale 0 is the no-effect control and ±100 the full control effect.
row,SMILES,"activity change, negative = inhibition"
1,COC(=O)c1ccccc1NC(=O)Cn1c(=O)n(CCCC(=O)NCc2ccccc2Cl)c(=O)c2ccccc21,inactive: 20.6%
2,C=C(C)CNC(=S)N/N=C/c1ccc(NC(C)=O)cc1,inactive: -13.6%
3,CCc1ccc2oc(-c3ccc(NC(=O)c4cccc(Cl)c4Cl)cc3)nc2c1,active: -70.1%
4,CC(C)(C)n1nnnc1C(c1ccccc1)N1CCN(c2ncccc2C(F)(F)F)CC1 (stereo unspecified),inactive: -21.4% and inactive: -0.411%
5,CCOc1ccc(/C=C/c2nc(C#N)c(NCCCN(C)C)o2)cc1,inconclusive: -49.5%
6,Cc1ccc(-c2nc3ccccc3c(=O)n2-c2cccc(O)c2)cc1,inconclusive: -46.8%
7,CCOC(=O)C(C)n1nc(-c2ccccc2)c2ccccc2c1=O (stereo unspecified),inconclusive: -53.4%
8,CCc1ccc(NC(=O)CCCc2nnc3n(CCCOC)c(=O)c4sccc4n23)cc1,inconclusive: -46.8%
9,Cc1cc2oc(=O)cc(CN(C)Cc3ccccc3)c2cc1C,inactive: 14%
10,COc1ccc(CCNc2nc(-c3ccc(O)cc3)cs2)cc1OC,inconclusive: -47.2%
11,CC(Oc1ccccc1)C(=O)Nc1nc(-c2ccccn2)cs1 (stereo unspecified),inconclusive: -54.5%
12,COc1cc(NS(=O)(=O)c2ccc3c(c2)oc(=O)n3C)cc(OC)c1OC,inconclusive: -49%
13,O=C(Nc1ccn(Cc2ccccc2F)n1)c1ccc(COc2ccccc2Cl)cc1,active: -97.6%
14,Cc1cccc(NC(=O)C2CCN(S(=O)(=O)c3ccc4c(c3)OCCO4)CC2)n1,inconclusive: -45.4%
15,c1sc2[n+](c1C13CC4CC(CC(C4)C1)C3)CCS2,active: -63.8%
16,CC1(C(=O)NS(=O)(=O)c2ccc(F)cc2F)CCN1C(=O)CCc1ccc(Cl)cc1Cl (stereo unspecified),inconclusive: -46.6%
17,O=C(O)c1cccc(COc2ccc(CO)cc2Cl)c1,inactive: 24.5%
18,CCOCCn1c(=O)c2c(nc3n2CCCN3Cc2ccccc2)n(C)c1=O,inconclusive: -44.5%
19,CC(=O)C(Sc1ccc2nnc(-c3ccncc3)n2n1)C(C)=O,active: -62.4%
20,CCC(C)NC(=O)Nc1ccc(Br)cc1 (stereo unspecified),inconclusive: -59.4%
21,COC(=O)Nc1ccc(S(=O)(=O)N2CCCC(C(=O)N3CCCCCC3)C2)cc1 (stereo unspecified),inconclusive: -44.1%
22,O=C(N/N=C/c1c(F)c(F)c(F)c(F)c1F)c1cccc(S(=O)(=O)N2CCOCC2)c1,inactive: -10.6%

row,SMILES,"activity change, negative = inhibition"
1,COc1ccccc1N1CCN(C(=O)CN(CCc2ccccc2)S(C)(=O)=O)CC1,inconclusive: -55.4%
2,Cc1nn(C2CCS(=O)(=O)C2)c(Cl)c1/C=C/C(=O)OCC(=O)c1cc(C)n(-c2ccc(F)cc2)c1C (stereo unspecified),active: -85.8%
3,CC1(C)Cc2c(sc3nc(SCC(=O)NCc4ccccc4)n(-c4ccccc4)c(=O)c23)CS1,inconclusive: -52.5%
4,COc1cccc(O)c1CN1CCCC(C(=O)c2sccc2C)C1 (stereo unspecified),inconclusive: -49.4%
5,COc1ccc(/C=C2/SC(=S)N(CCC(=O)N3CCN(C)CC3)C2=O)cc1,inconclusive: -49.2%
6,O=C(O)CC(NC(=O)C1c2ccccc2Oc2ccccc21)c1ccc(Cl)cc1 (stereo unspecified),active: -88.2%
7,Cc1ccc2nc(-c3ccncc3)cc(C(=O)NCCc3ccc(F)cc3)c2c1,inconclusive: -56%
8,O=C(CCCN1C(=O)c2cccc3cccc(c23)C1=O)NCc1cccs1,inconclusive: -44.1%
9,CN(C)c1ccc(CNC(=O)C2CCN(S(=O)(=O)c3ccc4[nH]c(=O)ccc4c3)CC2)cc1,inactive: 22.7%
10,O=c1c2sccc2[nH]c(=S)n1Cc1ccccc1,inactive: -16.9%
11,COc1ccc(-c2noc(CN(C(=O)c3c(-c4ccccc4Cl)noc3C)C(C)C)n2)cc1,inactive: 37.6%
12,CC(=O)c1c(C)n(-c2ccc(C)cc2)c2ccc(OC(=O)COc3ccccc3)cc12,inconclusive: -47%
13,COc1cc(NC(=O)CN2C(=O)C(=O)N(C3CCCC3)C2=O)cc(OC)c1,active: -99.3%
14,Cc1csc(CNc2ncnc3ccc(-c4ccc5c(c4)OCO5)cc23)c1,active: -69.5%
15,Cc1cc(C)c2nc(N(CCN(C)C)C(=O)/C=C/c3cccs3)sc2c1,inconclusive: -51.1%
16,COc1ccc(NC(=O)CSc2nnc3ccc(-c4ccncc4)nn23)cc1,active: -71.2%
17,CCCOc1ccc(C(=O)NC(=S)NCc2cccnc2)cc1,active: -64.7%
18,COCCNC(=O)/C(C#N)=C/c1ccc(-c2ccc(S(=O)(=O)N3CCOCC3)cc2)o1,inactive: -13.7%
19,CCCOC(=O)c1ccc(NC(=O)c2ccccc2[N+](=O)[O-])cc1,active: -99.7%
20,COc1ccc(NC(=O)CCC(=O)N2CCCC2)c([N+](=O)[O-])c1,inconclusive: -58.3%
21,O=[N+]([O-])c1ccccc1/C=C/C=N/n1c(-c2ccccc2)n[nH]c1=S,inconclusive: -43.9%
22,COc1ccc(-n2c(Cn3nnc4ccccc43)nnc2SCC(=O)O)cc1,inactive: -8.98%

row,SMILES,"activity change, negative = inhibition"
1,O=C(NCc1ccccc1)c1ncn[nH]1,inconclusive: -41%
2,Cc1nn(C)c(Oc2ccccc2)c1CCNC(=O)C(C)(C)C,active: -83.5%
3,CCc1nnc(NC(=O)CSCc2cc(=O)n3ccsc3n2)s1,inconclusive: -57.4%
4,Cc1ccccc1C(=O)Nc1nnc(SC(C)C)s1,inactive: -7.61%
5,Cc1ccccc1C(=O)N1CCN=C1SCc1ccc([N+](=O)[O-])cc1,inconclusive: -53.3%
6,COc1ccc(Nc2nc(-c3cccs3)nc3ccccc23)cc1,active: -102%
7,CCOc1ccc(N(CC(=O)Nc2ccc(OC)cc2)S(=O)(=O)c2c(C)noc2C)cc1,inconclusive: -54.9%
8,CC(=O)c1sc(=S)n(Cc2ccccc2)c1C,inconclusive: -50.9%
9,COc1ccc(C(=O)NC(C)c2nnc(SCC(=O)NC3CCCC3)n2C)cc1 (stereo unspecified),inactive: -27.7%
10,C=C(C)CN(CC)C(=O)CN1C(=O)NC(C)(c2ccc3ccccc3c2)C1=O (stereo unspecified),inactive: 36.2%
11,COc1ccc(OC)c(NC(=O)Cn2c(=O)n(-c3ccc(Cl)cc3)c(=O)c3c(C)c(C)sc32)c1,inactive: 2.9%
12,O=C(CSc1nc2ccccc2c(=O)n1CCCN1CCOCC1)Nc1cccc(S(=O)(=O)N2CCCCCC2)c1,inconclusive: -44.4%
13,Nc1nc(N)c(N=Nc2ccc(S(N)(=O)=O)cc2)c(=O)[nH]1,inactive: 1.64%
14,COc1ccc(-c2ccc(N(C)C)cc2)cc1[C@H]1[C@@H]2C=CCC[C@@]2(C)C(=O)N1Cc1ccccc1,inactive: 19.4%
15,Cc1ccc(CN2C(=O)C(F)(F)Oc3ccccc32)cc1,inactive: -11.9%
16,O=[N+]([O-])c1ccccc1/C=C/C=N/Nc1nc(N2CCCCC2)nc(N2CCCCC2)n1,inconclusive: -54.1%
17,O=C(Nc1ccccc1)N1CCN(c2nc(-c3ccccc3)ns2)CC1,inconclusive: -51.5%
18,NS(=O)(=O)c1ccc(NC(=O)c2ccc(S(=O)(=O)N3CCOCC3)o2)cc1,inconclusive: -41.1%
19,Cc1ccc(NC(=O)c2c(C)nn(-c3ccccc3)c2-n2cccc2)c(Cl)c1,inactive: -9.82%
20,COc1ccc(-c2cc(C(=O)N/N=C/c3sccc3C)c3ccccc3n2)c(OC)c1,active: -63.2%
21,CN(Cc1ccccc1)C(=O)Cn1c(=O)c2cccn2c2cccnc21,inconclusive: -41.8%
22,Cc1cc2oc(=O)cc(C)c2cc1NC(=O)CCl,active: -100%

# Some of these compounds in order of heavy-atom count, low to high.
row,SMILES,"activity change, negative = inhibition"
2,C=C(C)CNC(=S)N/N=C/c1ccc(NC(C)=O)cc1,inactive: -13.6%
17,CCCOc1ccc(C(=O)NC(=S)NCc2cccnc2)cc1,active: -64.7%
21,O=[N+]([O-])c1ccccc1/C=C/C=N/n1c(-c2ccccc2)n[nH]c1=S,inconclusive: -43.9%
18,NS(=O)(=O)c1ccc(NC(=O)c2ccc(S(=O)(=O)N3CCOCC3)o2)cc1,inconclusive: -41.1%
10,C=C(C)CN(CC)C(=O)CN1C(=O)NC(C)(c2ccc3ccccc3c2)C1=O (stereo unspecified),inactive: 36.2%
8,CCc1ccc(NC(=O)CCCc2nnc3n(CCCOC)c(=O)c4sccc4n23)cc1,inconclusive: -46.8%

# Continuation.

row,SMILES,"activity change, negative = inhibition"
1,CC(C)C(=O)c1cc2c(cc1NC(=O)c1cccs1)OCCO2,inconclusive: -43.6%
2,COc1ccc(-c2nn(-c3ccccc3C)cc2CNC(C)Cn2cncn2)cc1F (stereo unspecified),inactive: 23.8%
3,Cc1ccc(C(=O)OCC(=O)NC2CCCCC2)cc1S(=O)(=O)N1CCCCC1,inconclusive: -41.5%
4,Cc1ccc(C2(C)NC(=O)N(CC(=O)Nc3cc(S(=O)(=O)N4CCOCC4)ccc3C)C2=O)cc1 (stereo unspecified),active: -101%
5,CCOC(=O)c1c(C)nc2sc(C(N)=O)c(N)c2c1-c1ccc(OC)cc1,inconclusive: -57.4%
6,CCS(=O)(=O)Nc1c(C(=O)O)[nH]c2ccccc12,active: -108%
7,CN(C1CCCCC1)S(=O)(=O)c1cccc(C#N)c1,inconclusive: -55.6%
8,Cc1ccc(N2C(=O)NC(=O)/C(=C\C=C\c3ccco3)C2=O)cc1,active: -99.7%
9,Cc1ccc(/C=N/NC(=O)c2ccc3nc[nH]c3c2)s1,inconclusive: -47.4%
10,COc1ccc(Oc2ccc(C(F)(F)F)cc2NC(=O)c2ccc(F)cc2)cc1,inconclusive: -55.3%
11,CC(C)C(=O)Nc1ncc(Cc2cccc(Cl)c2)s1,active: -68.6%
12,CCC(OC(=O)c1ccc(S(C)(=O)=O)c([N+](=O)[O-])c1)C(=O)NC1C2CC3CC(C2)CC1C3 (stereo unspecified),active: -94.6%
13,CCCNC(=O)C1(C)CCN(Cc2csc(-c3ccc(Cl)cc3)n2)C1 (stereo unspecified),inconclusive: -43.8%
14,CC1CCN(CCCNC(=O)CN2C(=O)CSc3ccc(S(=O)(=O)N4CCOCC4)cc32)CC1,inconclusive: -46.5%
15,CC(=O)Nc1cccc(C(=O)OCc2csc(CC(=O)Nc3ccccc3C)n2)c1,inactive: 88.9%
16,COc1ccc(OC)c(S(=O)(=O)NC2CCN(Cc3ccccc3)CC2)c1,inconclusive: -40.5%
17,Cc1cc(Nc2ccc(Cl)cc2)n(-c2cccc(Cl)c2)n1,inconclusive: -50.2%
18,O=C(Cn1cnc2c(nnn2Cc2ccc(Cl)cc2)c1=O)c1ccccc1,active: -70.7%
19,O=C(NCc1ccncc1)c1cccc(NS(=O)(=O)c2ccc(F)c(F)c2)c1,active: -101%
20,COc1cccc(/C=C2\SC(=S)N(CC3CCCO3)C2=O)c1 (stereo unspecified),inconclusive: -51.6%

# Reference: PubChem BioAssay AID1259415 (National Center for Advancing Translational Sciences (NCATS), 2018)
